Experimental data as given in CN109988240A.
Results are given in words; binding and its absence hold for the method and conditions named. Some binding calls cover weakened binding; strength is not graded here.

The chains behind the UniProt entries cited, without tags or fusion partners. Residues count along the entry.
UniProt P51654, residues 25-559: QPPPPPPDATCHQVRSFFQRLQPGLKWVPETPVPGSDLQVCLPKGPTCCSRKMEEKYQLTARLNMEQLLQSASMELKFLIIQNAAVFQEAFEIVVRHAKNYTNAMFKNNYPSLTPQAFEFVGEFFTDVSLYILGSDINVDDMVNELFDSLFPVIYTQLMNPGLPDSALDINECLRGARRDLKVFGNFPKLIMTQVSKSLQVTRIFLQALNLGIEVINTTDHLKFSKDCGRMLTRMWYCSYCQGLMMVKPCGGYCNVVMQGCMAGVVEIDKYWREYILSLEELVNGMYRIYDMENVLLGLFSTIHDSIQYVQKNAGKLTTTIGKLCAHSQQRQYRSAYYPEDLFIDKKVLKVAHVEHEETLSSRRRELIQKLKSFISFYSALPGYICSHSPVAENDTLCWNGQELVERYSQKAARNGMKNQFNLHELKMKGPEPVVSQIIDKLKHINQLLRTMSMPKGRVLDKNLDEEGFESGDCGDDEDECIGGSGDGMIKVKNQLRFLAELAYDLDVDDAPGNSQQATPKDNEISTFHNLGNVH

Columns and labels:
[1] = target: 人GPC-3抗原 (磷脂酰肌醇蛋白聚糖3, Glypican-3) (human) (UniProt P51654); assay: indirect ELISA, GPC-3 antigen coated at 0.2 μg/ml
[2] = target: 人GPC-3抗原 (磷脂酰肌醇蛋白聚糖3, Glypican-3) (human) (UniProt P51654); assay: indirect ELISA on coated GPC-3, goat anti-human IgG-HRP detection

| Binder | binding [1] | binding [2] |
| --- | --- | --- |
| 鼠单克隆抗体GPC3#4(杂交瘤细胞株DWX-1分泌) (antibody, V domains shown) VH: QVQLQQSGAELVRPGAPVTLSCKASGYTFTDYEMHWVKQTPVNGLEWIGAIDPQTGNTAFNQKFKGKAILTADKSSSTAYMEVRSLTSEGSAVYYCTRFYSLTYWGQGTLVTVSA VL: DVLMTQVPLSLPVSLGDQASISCRSSQSIVHSNGNTYLQWYLQKPGQSPKLLIYKVSNRFSGVPDRFSGSGSGTYFTLKISRVEAEDLGVYYCFQGSHFPYAFGGGTKLEIK | binds | – |
| 人源化抗体AB13E3 (antibody, V domains shown) VH: QVQLVQSGAEVKKPGASVKVSCKASGYTFTDYEMHWVKQAPGQGLEWIGAIDPQTGNTAFNQKFKGRVTLTRDKSSSTVYMELSSLRSEDTAVYYCTRFYSLTYWGQGTLVTVSS VL: DVLMTQSPLSLPVTLGQPASISCRSSQSIVHSNGNTYLQWYLQRPGQSPKLLIYKVSNRFSGVPDRFSGSGSGTYFTLKISRVEAEDVGVYYCFQGSHFPYAFGGGTKVEIK | – | binds |
| 人源化抗体AB13E4 (antibody, V domains shown) VH: QVQLVQSGAEVVKPGASVKLSCKASGYTFTDYEMHWVKQTPGQGLEWIGAIDPQTGNTAFNQKFKGRATLTRDKSSSTAYMEVSSLRSEGTAVYYCTRFYSLTYWGQGTLVTVSS VL: DVLMTQSPLSLPVTLGQPASISCRSSQSIVHSNGNTYLQWYLQKPGQSPKLLIYKVSNRFSGVPDRFSGSGSGTYFTLKISRVEAEDVGVYYCFQGSHFPYAFGGGTKLEIK | – | binds |
